Experimental data: PubChem BioAssay AID504793 (Drosophila RNAi Screening Center, 2011)
The deposit covers about 23,000 reagents; this is an unselected part of those that have a named target and a result. In the full data, 62 (0.27%) got an active call. 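Calls come from follow-up tests whose scores are not deposited, so confirmed genes may have low counts here; counts are not normalised per plate.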 Raw values are not corrected between plates. A number with no mark means an inactive call. Names joined by + are all predicted targets of the reagent.

- Test: 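Whole-genome screen for parts of the DNA damage checkpoint at G2/M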 (primary screen)
- Cell system: Drosophila S2R+ cells
- Reagents: long dsRNA against Drosophila genes, about 0.25 µg dsRNA per well
- Timing: 4 days of dsRNA, then 4 hours of drug before read-out
- Challenge: doxorubicin 0.5 µM for 4 hours to cause double-strand breaks, in cells also given a low, harmless dose of dsRNA against nbs to sensitise the assay
- Measured: 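Mitotic index as the number of phospho-histone H3-positive cells in each well following doxorubicin, given as raw counts without normalisation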
- Direction: mitotic cells: higher = more cells in mitosis, weaker G2 arrest
- Hit rule: 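Genes are called active only when high mitotic counts were reproduced with independent dsRNAs and mitosis was checked for delay without damage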
- Meaning of the calls: active = confirmed in follow-up tests; inactive = not confirmed

For Tpr2 [DRSC03461], how do the results read?
mitotic cells, replicate 1: 1

For CG3065 [DRSC24998], how do the results read?
mitotic cells, replicate 1: 4

With Ack [DRSC08135], what does the deposit list?
mitotic cells, replicate 1: 2

For Ack [DRSC28013], what was measured?
mitotic cells, replicate 1: 5

What is on record for CG14507 [DRSC14859]?
mitotic cells, replicate 1: 13

With CG14507 [DRSC27958], what does the deposit list?
mitotic cells, replicate 1: 10

Which result is listed for Dok [DRSC18204]?
mitotic cells, replicate 1: 7

For Dok [DRSC23455], how do the results read?
mitotic cells, replicate 1: 5

Which result is listed for CG16789 [DRSC15155]?
mitotic cells, replicate 1: 7

How did the screen score Rop [DRSC08693]?
mitotic cells, replicate 1: 4

With Rop [DRSC26024], what was measured?
mitotic cells, replicate 1: 9

What is on record for DCTN4-p62 [DRSC06101]?
mitotic cells, replicate 1: 12

Which result is listed for DCTN4-p62 [DRSC27900]?
mitotic cells, replicate 1: 10

For CG7492 [DRSC10855], how do the results read?
mitotic cells, replicate 1: 8

How did the screen score Trmt112 [DRSC11685]?
mitotic cells, replicate 1: 3

With Ir52c [DRSC21801], what does the deposit list?
mitotic cells, replicate 1: 8

With Ir52c [DRSC27570], how do the results read?
mitotic cells, replicate 1: 6

How did the screen score Syngr [DRSC06003]?
mitotic cells, replicate 1: 3

With PGRP-LD + Pmi [DRSC10512], what does the deposit list?
mitotic cells, replicate 1: 4

What is on record for PGRP-LD + Pmi [DRSC10513]?
mitotic cells, replicate 1: 10

For CG14062 [DRSC14725], what does the deposit list?
mitotic cells, replicate 1: 12

How did the screen score CG14062 [DRSC27180]?
mitotic cells, replicate 1: 3

What is on record for CG9300 [DRSC11064]?
mitotic cells, replicate 1: 11

Which result is listed for CG42342 [DRSC13165]?
mitotic cells, replicate 1: 4

For CG42342 [DRSC15010], what was measured?
mitotic cells, replicate 1: 7

For CG42342 [DRSC15011], what was measured?
mitotic cells, replicate 1: 8

Which result is listed for CG42342 [DRSC15012]?
mitotic cells, replicate 1: 4

How did the screen score CG42342 [DRSC21791]?
mitotic cells, replicate 1: 17

What did the screen give for CG42342 [DRSC22861]?
mitotic cells, replicate 1: 6

With CG42342 [DRSC23112], what was measured?
mitotic cells, replicate 1: 12

For CG42342 [DRSC24200], what does the deposit list?
mitotic cells, replicate 1: 9

What did the screen give for CG42342 [DRSC25912]?
mitotic cells, replicate 1: 8

Which result is listed for CG42342 [DRSC28157]?
mitotic cells, replicate 1: 5

Which result is listed for CG9632 [DRSC16528]?
mitotic cells, replicate 1: 4

For VhaPPA1-1 [DRSC16170], how do the results read?
mitotic cells, replicate 1: 4

For VhaPPA1-1 [DRSC24144], what does the deposit list?
mitotic cells, replicate 1: 8

How did the screen score CG3156 [DRSC18503]?
mitotic cells, replicate 1: 6

For CG3156 [DRSC27939], what was measured?
mitotic cells, replicate 1: 6

With CG12990 [DRSC19510], what was measured?
mitotic cells, replicate 1: 2

With CG15226 (retired record) [DRSC03829], what does the deposit list?
mitotic cells, replicate 1: 8

For CG15226 (retired record) [DRSC04233], what was measured?
mitotic cells, replicate 1: 4

What is on record for mus304 [DRSC11372]?
mitotic cells, replicate 1: 22 (active)

With eIF3m [DRSC07142], how do the results read?
mitotic cells, replicate 1: 8

Which result is listed for eIF3m [DRSC26908]?
mitotic cells, replicate 1: 4
